Experimental data as given in PubChem BioAssay AID2551 (National Center for Advancing Translational Sciences (NCATS), 2010).
Several values for one entry are separate records, joined by “and”; a condition that tells them apart may be missing. Equal values may be shown once. Screen size: about 310,000 compounds; about 17,000 (5.5%) were called active. The inconclusive results got no clear call from the source; some entries with a clear call stand among them for comparison. The call rests on the fitted dose curve; in most records, active means well fitted inhibition curve with a large enough effect; inconclusive means small, poorly fitted or top-dose-only effect, or effect the other way; inactive means no such curve, though single readings can be large or run the other way. Where the call is inconclusive, the potency comes from a doubtful curve fit.

Amino acid sequences for entries named in this document (tags omitted). A change or cut given only in a name is not applied to a line headed by its entry.
UniProt P51450: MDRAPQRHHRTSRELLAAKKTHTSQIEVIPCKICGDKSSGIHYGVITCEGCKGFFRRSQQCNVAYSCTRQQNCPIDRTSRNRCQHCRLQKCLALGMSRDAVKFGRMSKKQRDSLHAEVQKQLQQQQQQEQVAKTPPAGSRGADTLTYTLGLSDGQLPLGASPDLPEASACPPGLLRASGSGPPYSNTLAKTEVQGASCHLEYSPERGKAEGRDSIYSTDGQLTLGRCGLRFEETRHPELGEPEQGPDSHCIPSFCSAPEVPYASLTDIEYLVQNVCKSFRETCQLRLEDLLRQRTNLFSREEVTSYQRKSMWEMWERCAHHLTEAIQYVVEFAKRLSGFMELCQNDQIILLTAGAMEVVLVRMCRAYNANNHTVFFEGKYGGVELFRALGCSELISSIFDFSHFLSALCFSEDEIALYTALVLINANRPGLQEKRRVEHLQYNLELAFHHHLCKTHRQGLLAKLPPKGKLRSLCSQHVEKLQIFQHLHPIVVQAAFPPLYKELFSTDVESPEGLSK

Molecular target: Nuclear receptor ROR-gamma (Mus musculus) (UniProt P51450)
Experiment: qHTS for inhibitors of ROR gamma transcriptional activity; further: nearly all actives have a fitted effect of over 60% in size
Conditions: Drosophila S2 Gal4-RORgamma UAS-luciferase reporter, 20 h; series mostly up to 53.6 µM
How it was run: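 Stable Schneider cell line, Gal4 DNA-binding domain fused to ROR gamma, UAS-luciferase. Cmpd 1 hr RT → CuSO4 700 uM final → 20 hr RT → luciferase reagent 10 min → luminescence.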
Potency means the concentration at half of the fitted maximal effect.

Structure (SMILES) | Potency
Nc1ccccc1NC(=O)c1ccccc1 | inconclusive: 22.4 µM [inhibitor, single point]
COc1cccc(NC(=S)N2CCN(C(c3ccccc3)c3ccccc3)CC2)c1 | active: 4.47 µM
COC(=O)c1sccc1-c1ccc(C(=O)Nc2ccccc2)o1 | inconclusive: 11.2 µM [inhibitor, single point]
COc1cccc(C(=O)N/N=C(/c2ccccc2)c2ccccn2)c1 | active: 0.1 µM
Cc1cccnc1-n1c(CCN2C(=O)c3ccccc3C2=O)nc2ccccc2c1=O | inconclusive: 5.01 µM [activator, full curve]
COc1cccc(NC(=O)CSc2nnc(Cc3ccc(OC)c(OC)c3)o2)c1 | inactive
O=[N+]([O-])c1ccccc1S(=O)(=O)Nc1cccc2cccnc12 | active: 501 nM and active: 708 nM
Cc1cccc(C(=O)O/N=C(\N)CS(=O)(=O)c2ccccc2)c1 | inconclusive: 10 µM [inhibitor, single point]
CCCNC(=S)Nc1ccc(S(N)(=O)=O)cc1 | inactive
O=C(NC1CCS(=O)(=O)C1)c1ccc(S(=O)(=O)NCC2CCCO2)cc1 (stereo not given) | inconclusive: 2.82 µM [inhibitor, partial curve]
CCCCOc1ccc(NC(=O)C(=O)NCCCn2ccnc2)cc1 | inconclusive: 35.5 µM [activator, single point]
Cc1ccccc1CSCC(=O)Nc1ccccc1F | inactive
Cc1ccc(NS(=O)(=O)c2cccc3cccnc23)cc1Cl | inconclusive: 12.6 µM [inhibitor, single point]
Cc1ccc(NC(=O)COC(=O)c2ccc3c(c2)OCO3)cc1S(=O)(=O)N1CCCCC1 | inconclusive: 22.4 µM [activator, single point]
CCSc1nnc2n1C(C)(C)Cc1ccccc1-2 | inactive
CC1CCN(C2CC(=O)N(c3ccccc3)C2=O)CC1 (stereo not given) | inconclusive: 31.6 µM [inhibitor, single point]
C=CCn1c(-c2ccoc2)n[nH]c1=S | active: 11.2 µM
CCOc1ccc(N(CC(=O)NCCc2ccc(Cl)cc2)S(=O)(=O)c2c(C)[nH]c(=O)[nH]c2=O)cc1 | inactive
COc1ccc(NC(=O)C(CCSC)N2C(=O)c3ccccc3C2=O)cc1 (stereo not given) | inactive
O=C(Nc1ccc([N+](=O)[O-])cc1)C(Cc1ccccc1)N1C(=O)c2cccc3cccc(c23)C1=O (stereo not given) | inconclusive: 28.2 µM [activator, single point]
COC(=O)c1ccc(Oc2cc(C)nc(Cl)n2)cc1 | inactive
CCn1c2ccccc2c2cc(NC(=O)c3cccc(OC)c3)ccc21 | inconclusive: 7.08 µM [activator, partial curve]
Cc1cc2nc(CCN(C(=S)NCC(C)C)C3CCCC3)[nH]c2cc1C | active: 7.08 µM
O=c1c(O[C@@H]2O[C@H](CO)[C@H](O)[C@H](O)[C@H]2O)c(-c2ccc(O)c(O)c2)oc2cc(O)cc(O)c12 | inactive

At a glance, some entries already given:
Structure (SMILES) | Potency
Cc1cccnc1-n1c(CCN2C(=O)c3ccccc3C2=O)nc2ccccc2c1=O | inconclusive: 5.01 µM [activator, full curve]
COc1cccc(NC(=O)CSc2nnc(Cc3ccc(OC)c(OC)c3)o2)c1 | inactive

Reformatted: entries from further up.
Structure (SMILES)	Potency
COc1cccc(C(=O)N/N=C(/c2ccccc2)c2ccccn2)c1	active: 0.1 µM
CC1CCN(C2CC(=O)N(c3ccccc3)C2=O)CC1 (stereo not given)	inconclusive: 31.6 µM [inhibitor, single point]

Next records

Structure (SMILES) | Potency
COc1ccc(CNC(=O)c2cc(-c3cccs3)on2)cc1 | inconclusive: 0.794 µM [activator, full curve, poor fit]
Cc1ccsc1/C=N/NC(=O)Cn1cnc2ccccc21 | inconclusive: 22.4 µM [inhibitor, single point]
CC(C)(C)c1ccc(NC(=O)COC(=O)CCc2nc3ccccc3c(=O)[nH]2)cc1 | inconclusive: 14.1 µM [activator, single point]
COc1ccc(N(C(=O)c2snc(C(N)=O)c2N)C(C(=O)NC2CCCC2)c2ccc(C)o2)c(OC)c1 (stereo not given) | inconclusive: 0.282 µM [activator, full curve, poor fit]
Cc1nnc(SCC(=O)NCc2ccccc2Cl)n(N)c1=O | inconclusive: 31.6 µM [activator, single point]
COc1cc(CN2CCCC(CO)(Cc3cccc(Cl)c3)C2)cc2c1OCO2 (stereo not given) | inconclusive: 35.5 µM [inhibitor, single point]
S=c1[nH]cnc2scc(-c3ccc(Cl)cc3)c12 | active: 0.447 µM
S=C(Nc1ccccc1)Nc1ccc(Br)cc1 | inconclusive: 17.8 µM [inhibitor, single point]
Cc1ccc(NC(=O)C2CCCN2c2nn3c(=O)cc(C)nc3s2)cc1 (stereo not given) | inconclusive: 20 µM [inhibitor, single point]
CC1CCCCN1S(=O)(=O)c1ccc(S(=O)(=O)NCCc2ccncc2)cc1 (stereo not given) | inconclusive: 4.47 µM [activator, full curve, poor fit]
CC/C(=N\NC(=O)c1c(-c2ccccc2)noc1C)c1ccc(C)o1 | inconclusive: 5.62 µM [activator, single point]
Cc1cc([N+](=O)[O-])ccc1NC(=O)/C=C/c1cccs1 | inconclusive: 3.98 µM [activator, partial curve]
O=c1[nH]c2cc3c(cc2cc1C(c1nnnn1CC1CCCO1)N1CCCC1)OCO3 (stereo not given) | inactive
C/C=C/c1ccc(OCCOc2ccc(C=O)cc2)c(OC)c1 | inconclusive: 20 µM [activator, partial curve]
CN(C)c1ccc(NC(=O)C2CCCN(S(=O)(=O)c3ccccc3)C2)cc1 (stereo not given) | inconclusive: 35.5 µM [activator, single point]
CSc1nc(C)cc(C)c1C(N)=O | inconclusive: 4.47 µM [inhibitor, full curve, poor fit]
COc1ccc(C(=O)N2CCN(C(=O)c3cc(OC)c(OC)c(OC)c3)CC2)cc1 | inactive
CCC[C@H](N[C@@H](C)C(=O)N1[C@@H]2CCCC[C@H]2C[C@H]1C(=O)O)C(=O)OCC | inactive
CCOC(=O)c1ccc(NS(=O)(=O)c2ccc3c(c2)oc(=O)n3C)cc1 | inconclusive: 22.4 µM [activator, single point]
Cn1c(N)c(-c2ccccc2)c2ccc([N+](=O)[O-])cc2c1=O | inconclusive: 20 µM [activator, partial curve, poor fit]
O=C(Nc1ccc(N2CCOCC2)c(Cl)c1)c1ccc(S(=O)(=O)N2CCOCC2)cc1 | inconclusive: 14.1 µM [activator, single point]
COc1ccccc1NC(=S)N/N=C/c1ccc(O)cc1 | active: 3.98 µM
COc1ccc(CCNC(=S)N2CCC(Cc3ccccc3)CC2)cc1OC | inconclusive: 15.8 µM [inhibitor, single point]
Cc1ccc(-c2cc(C(F)F)nc(NCc3cccnc3)n2)cc1 | inconclusive: 0.0447 µM [activator, partial curve, poor fit]

Random excerpt: two compounds from above.
Structure (SMILES) | Potency
COc1ccc(C(=O)N2CCN(C(=O)c3cc(OC)c(OC)c(OC)c3)CC2)cc1 | inactive
COc1ccc(CNC(=O)c2cc(-c3cccs3)on2)cc1 | inconclusive: 0.794 µM [activator, full curve, poor fit]

More compounds:

Structure (SMILES) | Potency
COc1ccc(NC(=O)N2CC3(CCN(C(=O)c4ccc(OC)cc4)CC3)C2)cc1 | inactive
O=c1c2c(nc3cc(-c4cccc(Cl)c4)[nH]n13)CCC2 | inconclusive: 10 µM [inhibitor, single point]
COc1ccc(OC)c(C(=O)c2ccc(C(=O)Nc3cccc4ccccc34)cc2)c1 | inconclusive: 10 µM [activator, partial curve]
Cc1ccc(C2C(C(=O)c3cc4ccccc4o3)=C(O)C(=O)N2CCN2CCOCC2)cc1 (stereo not given) | inactive
CC1CCCCN1C(=O)CSc1nnc(-c2c[nH]c3ccccc23)o1 (stereo not given) | inconclusive: 35.5 µM [activator, single point]
O=C(OCC(=O)N1CCc2ccccc21)c1cccnc1 | inconclusive: 0.0056 µM [activator, full curve, poor fit]
CCOC(=O)CN(C(=O)CSc1nnc(-c2ccncc2)n1CCCOC)c1ccccc1 | inconclusive: 6.31 µM [activator, single point]
COc1cc(OC)cc(C(=O)NCCOc2ccccc2)c1 | inconclusive: 0.0631 µM [activator, full curve, poor fit]
Cc1cc2nccc(-c3ccc(OCCCF)cc3)n2n1 | inactive
COCCn1c(SCC(=O)c2ccc(CNC(C)=O)o2)nc2ccccc2c1=O | inconclusive: 22.4 µM [inhibitor, single point]
Cc1ccc(NC(=O)CC2S/C(=N/N=C/c3ccco3)NC2=O)cc1Cl (stereo not given) | inconclusive: 15.8 µM [inhibitor, partial curve]
CC(C)c1ccc(-n2c(-c3ccccc3)c[n+]3c2CCc2ccccc2-3)cc1 | active: 4.47 µM
COCCN(C(=O)C1CC1)c1nnc(-c2ccc(C)cc2)s1 | inconclusive: 11.2 µM [activator, partial curve]
O=C(O)c1cc(-c2ccc(Cl)s2)nc2ccccc12 | inconclusive: 35.5 µM [inhibitor, single point]
Cc1ccc(-c2csc(NC(=O)Cn3[nH]c(=O)c4ccccc4c3=O)n2)cc1 | inconclusive: 35.5 µM [inhibitor, single point]
CC(C)C[C@H](NC(=O)c1nc[nH]c1C(=O)NC1CCN(C(=O)OC(C)(C)C)CC1)C(=O)OC(C)(C)C | active: 3.16 µM
COc1ccc(C2=NS(=O)(=O)N(C)C(C(=O)Nc3ccc4c(c3)OCO4)=C2)cc1 | inconclusive: 35.5 µM [activator, single point]
Cn1c(SCCOc2cccc(Cl)c2)nnc1-c1ccncc1 | inconclusive: 20 µM [activator, partial curve]
COc1cc(/C=C2/SC(=S)N(c3ccccc3)C2=O)ccc1Oc1nc(N2CCOCC2)nc(N2CCOCC2)n1 | inactive
OCCNc1c2ccccc2nc2c(F)c(F)c(F)c(F)c12 | active: 10 µM
COc1ccc(OC)c(N(CC(=O)N2CCCC2)S(C)(=O)=O)c1 | inactive
C=C(C)c1cccc(C(C)(C)NC(=O)N2CCN(C/C=C/c3ccccc3)CC2)c1 | inactive
